Taken from: PubChem BioAssay AID1259254 (NCATS, 2017)
The deposit covers about 59,000 reagents; below is an unselected part. In the full data, about 1,550 (2.6%) were called active. 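G2 share is only a proxy for re-replication; each gene was hit by three separate siRNAs, and active genes were retested.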 The numbers tell different reagents against one gene apart. Not all columns of the deposit are shown. Reagent sequences are not shown. Not stated in the record: the amount of reagent.

Assay: 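Finding genes that stop cells copying their DNA twice in one cycle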 (primary screen)
Cells: human HCT116 colorectal cancer cells
Knock-down reagent: single siRNA against human genes
Duration: 3 days
Measurement: 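Nuclei stained with Hoechst and imaged; cell-cycle phase assigned by DNA content; G2 share scaled per plate, non-targeting siRNA 0%, GMNN siRNA 100%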
Reading the numbers: G2 robust z-score and G2 cells, % of GMNN control: higher = more G2 cells, more excess DNA replication
Active means: 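Active siRNAs have a G2 robust z of 5 or more median absolute deviations over the median, which in these data means about 38% or higher of GMNN control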

| gene knocked down | reagent no. | G2 robust z-score | G2 cells, % of GMNN control | activity call |
| --- | --- | --- | --- | --- |
| REM1 | 1 | -1.19 | -5.43 | inactive |
| REM1 | 2 | -0.633 | -1.49 | inactive |
| REM1 | 3 | -1.15 | -5.15 | inactive |
| DNAJC18 | 1 | 0.0649 | 3.42 | inactive |
| DNAJC18 | 2 | 0.806 | 8.64 | inactive |
| DNAJC18 | 3 | 0.00552 | 3.01 | inactive |
| CH25H | 1 | 0.321 | 5.23 | inactive |
| CH25H | 2 | 0.13 | 3.88 | inactive |
| CH25H | 3 | 1.73 | 15.1 | inactive |
| TRMT1 | 1 | 0.795 | 8.56 | inactive |
| TRMT1 | 2 | -0.768 | -2.44 | inactive |
| TRMT1 | 3 | -1.35 | -6.52 | inactive |
| CDKN3 | 1 | -0.926 | -3.55 | inactive |
| CDKN3 | 2 | 2.52 | 20.7 | inactive |
| CDKN3 | 3 | 0.528 | 6.68 | inactive |
| SHANK2 | 1 | -0.0609 | 2.54 | inactive |
| SHANK2 | 2 | -0.138 | 1.99 | inactive |
| SHANK2 | 3 | 0.273 | 4.89 | inactive |
| SLC43A2 | 1 | -0.873 | -3.17 | inactive |
| SLC43A2 | 2 | 1.03 | 10.2 | inactive |
| SLC43A2 | 3 | -0.469 | -0.329 | inactive |
| SCEL | 1 | 3.39 | 26.8 | inactive |
| SCEL | 2 | 0.105 | 3.71 | inactive |
| SCEL | 3 | 0.254 | 4.76 | inactive |
| MBL2 | 1 | -0.309 | 0.794 | inactive |
| MBL2 | 2 | 0.243 | 4.68 | inactive |
| MBL2 | 3 | -0.171 | 1.76 | inactive |
| NLRX1 | 1 | -1.03 | -4.26 | inactive |
| NLRX1 | 2 | 0.456 | 6.18 | inactive |
| NLRX1 | 3 | -1.25 | -5.86 | inactive |
| FAM120A | 1 | -0.996 | -4.04 | inactive |
| FAM120A | 2 | -0.445 | -0.164 | inactive |
| FAM120A | 3 | -0.696 | -1.93 | inactive |
| SHISA7 | 1 | 7 | 52.2 | active |
| SHISA7 | 2 | 0.71 | 7.96 | inactive |
| SHISA7 | 3 | 1.7 | 14.9 | inactive |
| FAM110B | 1 | 0.184 | 4.26 | inactive |
| FAM110B | 2 | -0.298 | 0.872 | inactive |
| FAM110B | 3 | 1.45 | 13.2 | inactive |
| NDUFV1-DT | 1 | 1.17 | 11.2 | inactive |
| NDUFV1-DT | 2 | 0.0422 | 3.26 | inactive |
| NDUFV1-DT | 3 | 0.362 | 5.51 | inactive |
| DENND4B | 1 | -0.355 | 0.471 | inactive |
| DENND4B | 2 | 0.0501 | 3.32 | inactive |
| DENND4B | 3 | -0.396 | 0.182 | inactive |
| STAG2 | 1 | -0.549 | -0.893 | inactive |
| STAG2 | 2 | -1.07 | -4.56 | inactive |
| STAG2 | 3 | 0.272 | 4.88 | inactive |
